Reference: patent publication US20100233096A1, “METHOD TO PRODUCE HYPERPOLARISED CARBOXYLATES AND SULPHONATES” (priority 2006, published 2010)
Where two headings read alike, the source gives them in different places.

Tests used:
[1] = Liquid state polarisation of 13C nuclei by liquid state 13C-NMR after DNP and dissolution

CC(=O)[13C](=O)[O-].[Cs+] [caesium pyruvate, Caesium ^13C1-pyruvate]
liquid state polarisation of the 13C nuclei ([1]; Example 3: 7 molar aqueous solution, 14.5 mM trityl radical, no Gd-chelate, DNP 1.2 K, 3.35 T, 93.950 GHz, 2 hours, dissolved in 7 ml water with 100 mg/l EDTA, 13C-NMR at 400 MHz): 15%
liquid state polarisation of the 13C nuclei ([1]; Example 5: about 14 mM trityl radical and 0.7 mM Gd-chelate of Example 4 (2.1 mM Gd3+), DNP 1.2 K, 3.35 T, 2 hours, dissolved in 7 ml water with 100 mg/l EDTA, 400 MHz): 24%

CC(=O)[13C](=O)[O-].[Na+] [sodium pyruvate, Sodium ^13C1-pyruvate]
liquid state polarisation of the 13C nuclei ([1]; Example 6: DNP and dissolution as Example 5 (trityl radical + Gd-chelate), then sodium charged ion exchange column, about 4-5 s, 400 MHz): 17%

O=[13C]([O-])O.[Cs+] [caesium ^13C-bicarbonate]
solid state polarisation of the 13C nuclei (Example 7: 10 mM trityl radical, glycerol/water, no Gd-chelate, DNP 1.2 K, 3.35 T, 93.890 GHz, 3 hours): 70 integral/mmol ^13C
solid state polarisation of the 13C nuclei (Example 8: as Example 7 plus 0.7 mM Gd-chelate of Example 4 (2.1 mM Gd3+)): 390 integral/mmol ^13C
liquid state polarisation of the 13C nuclei ([1]; Example 9: 12 mM trityl radical, 0.2 mM Gd-chelate (0.6 mM Gd3+), glycerol/water, DNP 1.2 K, 3.35 T, 93.890 GHz, 3 hours, dissolved to 10 mM, 400 MHz): 18%
